Assay results from patent US20170189504A1, “NOVEL PEPTIDES AND COMBINATION OF PEPTIDES FOR USE IN IMMUNOTHERAPY AGAINST VARIOUS CANCERS” (immatics biotechnologies GmbH, priority 2015, published 2017).

Legend:
HLA-A*02 = experiment: Identification and relative LC-MS quantitation of HLA-A*02-presented tumor-associated peptides on tissue samples (presentation profiles, Tables 13A, 13B, 15, FIG. 1); design: species or system human; key to Presentation score NHL / Presentation score CLL / Presentation score BRCA / Presentation score AML / Presentation score GB / Presentation score NSCLC / Presentation score GBC_CCC / Presentation score UEC / Presentation score MEL / Presentation score OSCAR / Presentation score GC / Presentation score UBC / Presentation score OC / Presentation score RCC / Presentation score CRC / Presentation score PCA / Presentation score HCC / Presentation score PC / Presentation score SCLC: specifically presented on tumors (++++); very highly over-presented on tumors compared to a panel of normal tissues (+++); highly over-presented on tumors compared to a panel of normal tissues (++); over-presented on tumors compared to a panel of normal tissues (+); conditions: for Peptide Presentation on cancer entities: HLA-A*02-binding tumor-associated peptides
source genes (mRNA) [1] = experiment: Gene and exon expression of source genes, TCGA tumor samples compared with normal tissue samples (Lonsdale, 2013) (Table 17); design: species or system human
source genes (mRNA) [2] = experiment: Expression profiling of source genes by in-house RNASeq of tumor and normal tissues (Table 18, FIG. 2); design: species or system human; key: very highly over-expressed in tumors compared to a panel of normal tissues (+++); highly over-expressed in tumors compared to a panel of normal tissues (++); over-expressed in tumors compared to a panel of normal tissues (+); conditions: source gene of peptide

11: peptide found in RNF213 (gene looked up) (ALSPSYLTV; listed as Homo sapiens) [compound 11]
Presentation score BRCA (HLA-A*02; HLA-A*02 peptides, breast cancer (N = 17) vs panel of normal tissues (N = 262)): +++
Presentation score CLL (HLA-A*02; HLA-A*02 peptides, chronic lymphocytic leukemia (N = 17) vs panel of normal tissues (N = 262)): +++
Presentation score GBC_CCC (HLA-A*02; HLA-A*02 peptides, gallbladder adenocarcinoma and cholangiocarcinoma (N = 6) vs panel of normal tissues (N = 262)): +++
Presentation score GC (HLA-A*02; HLA-A*02 peptides, gastric cancer (N = 29) vs panel of normal tissues (N = 262)): +++
Presentation score NHL (HLA-A*02; HLA-A*02 peptides, non-Hodgkin lymphoma (N = 18) vs panel of normal tissues (N = 262)): +++
Presentation score NSCLC (HLA-A*02; HLA-A*02 peptides, non-small cell lung cancer (N = 90) vs panel of normal tissues (N = 262)): +++
Peptide Presentation on cancer entities (HLA-A*02; Table 13A, cancer entities on which the peptide was found presented): GC, NSCLC, CLL, BRCA, GBC_CCC, NHL
Peptide Presentation on cancer entities (HLA-A*02; Table 13B, presentation on additional cancer entities): HNSCC
Target coverage: over-expression category of source gene, LAML (source genes (mRNA) [1]; Acute Myeloid Leukemia (N = 173), cutoff more than 2-fold above highest 75% percentile of normal tissue samples): A (>=50% of tumors above the cutoff)
Target coverage: over-expression category of source gene, BLCA (source genes (mRNA) [1]; Bladder urothelial carcinoma (N = 408), cutoff more than 2-fold above highest 75% percentile of normal tissue samples): C (>=5% of tumors above the cutoff, but <20%)
Target coverage: over-expression category of source gene, BRCA (source genes (mRNA) [1]; Breast cancer (N = 1104), cutoff more than 2-fold above highest 75% percentile of high and medium risk normal tissue samples): B (>= 20% of tumors above the cutoff, but <50%)
Target coverage: over-expression category of source gene, KIRC (source genes (mRNA) [1]; Clear cell kidney carcinoma (N = 534), cutoff more than 2-fold above highest 75% percentile of normal tissue samples): C (>=5% of tumors above the cutoff, but <20%)
Target coverage: over-expression category of source gene, ESCA (source genes (mRNA) [1]; Esophageal cancer (N = 185), cutoff more than 2-fold above highest 75% percentile of normal tissue samples): B (>= 20% of tumors above the cutoff, but <50%)
Target coverage: over-expression category of source gene, LUAD (source genes (mRNA) [1]; Lung adenocarcinoma (N = 517), cutoff more than 2-fold above highest 75% percentile of normal tissue samples): C (>=5% of tumors above the cutoff, but <20%)
Target coverage: over-expression category of source gene, DLBC (source genes (mRNA) [1]; Lymphoid neoplasm diffuse large B-cell lymphoma (N = 48), cutoff more than 2-fold above highest 75% percentile of normal tissue samples): C (>=5% of tumors above the cutoff, but <20%)
Target coverage: over-expression category of source gene, OV (source genes (mRNA) [1]; Ovarian serous cystadenocarcinoma (N = 309), cutoff more than 2-fold above highest 75% percentile of normal tissue samples): B (>= 20% of tumors above the cutoff, but <50%)
Target coverage: over-expression category of source gene, KIRP (source genes (mRNA) [1]; Papillary kidney carcinoma (N = 291), cutoff more than 2-fold above highest 75% percentile of normal tissue samples): B (>= 20% of tumors above the cutoff, but <50%)
Target coverage: over-expression category of source gene, SKCM (source genes (mRNA) [1]; Skin cutaneous melanoma (N = 473), cutoff more than 2-fold above highest 75% percentile of normal tissue samples): C (>=5% of tumors above the cutoff, but <20%)
Target coverage: over-expression category of source gene, STAD (source genes (mRNA) [1]; Stomach adenocarcinoma (N = 415), cutoff more than 2-fold above highest 75% percentile of normal tissue samples): B (>= 20% of tumors above the cutoff, but <50%)
Target coverage: over-expression category of source gene, UCEC (source genes (mRNA) [1]; Uterine corpus endometrial carcinoma (N = 546), cutoff more than 2-fold above highest 75% percentile of normal tissue samples): C (>=5% of tumors above the cutoff, but <20%)
Expression score BRCA (source genes (mRNA) [2]; BRCA tumors vs panel of normal tissues): +
Expression score OSCAR (source genes (mRNA) [2]; esophageal cancer incl. gastric-esophageal junction (N = 11) vs panel of normal tissues): +
Expression score NHL (source genes (mRNA) [2]; non-Hodgkin lymphoma (N = 10) vs panel of normal tissues): +
Expression score NSCLC (source genes (mRNA) [2]; non-small cell lung cancer (N = 11) vs panel of normal tissues): +
Expression score OC (source genes (mRNA) [2]; ovarian cancer (N = 12) vs panel of normal tissues): ++
Expression score PC (source genes (mRNA) [2]; pancreatic cancer (N = 26) vs panel of normal tissues): +
Expression score SCLC (source genes (mRNA) [2]; small cell lung cancer (N = 10) vs panel of normal tissues): +

For part of these data: For expression read-outs the peptide stands for its source gene, whose mRNA was measured; the gene is not named for every peptide.
